Source: paper PMC11637768
No constants are given. Whether binding was seen depends on the method and setting. In cells and extracts the contact can be indirect. Binding calls can cover weak binding; strength is not graded here. Tags and fused reporters may be left off the sequences shown. Each block holds one molecule with its values, some of them ahead of it.

What was measured:
[1] = target: T1, VH1-interacting kinase (VIK), recombinant with GST or His tag (Arabidopsis thaliana) (UniProt Q9XI87); experiment: pull-down; His/GST pull-down in vitro; proteins expressed in E. coli Rosetta incubated with BeaverBeads IDA-Nickel at 4 °C for 4 h; immunoblot with anti-His and anti-GST; both orientations
T1 sequence: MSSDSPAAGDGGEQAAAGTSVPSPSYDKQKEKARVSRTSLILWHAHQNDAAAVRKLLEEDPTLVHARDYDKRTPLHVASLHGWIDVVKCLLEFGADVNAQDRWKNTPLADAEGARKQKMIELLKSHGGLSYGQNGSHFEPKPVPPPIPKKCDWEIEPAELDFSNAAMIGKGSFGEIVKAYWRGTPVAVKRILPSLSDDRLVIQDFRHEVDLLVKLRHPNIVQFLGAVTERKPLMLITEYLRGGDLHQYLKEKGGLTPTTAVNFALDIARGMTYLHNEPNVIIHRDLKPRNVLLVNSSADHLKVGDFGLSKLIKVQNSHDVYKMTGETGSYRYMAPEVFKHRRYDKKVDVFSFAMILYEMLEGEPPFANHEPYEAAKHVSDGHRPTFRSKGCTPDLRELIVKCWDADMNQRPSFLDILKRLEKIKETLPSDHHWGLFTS

[2] = target: YELLOW, SERRATED LEAF (YSL)-His fusion protein (Arabidopsis thaliana); experiment: as above
[3] = target: YSL-YFP^C (Arabidopsis thaliana); experiment: split reporter; BiFC; YSL-YFP^C and VIK-YFP^N coexpressed in N. benthamiana leaves by agroinfiltration; confocal microscopy after 36 to 48 h

binding [1]: binds
Molecule: YELLOW, SERRATED LEAF (YSL)-His fusion protein (Arabidopsis thaliana)

binding [2]: binds
B1: VH1-interacting kinase (VIK), recombinant with GST or His tag (protein, UniProt Q9XI87 1-438)
chain: MSSDSPAAGDGGEQAAAGTSVPSPSYDKQKEKARVSRTSLILWHAHQNDAAAVRKLLEEDPTLVHARDYDKRTPLHVASLHGWIDVVKCLLEFGADVNAQDRWKNTPLADAEGARKQKMIELLKSHGGLSYGQNGSHFEPKPVPPPIPKKCDWEIEPAELDFSNAAMIGKGSFGEIVKAYWRGTPVAVKRILPSLSDDRLVIQDFRHEVDLLVKLRHPNIVQFLGAVTERKPLMLITEYLRGGDLHQYLKEKGGLTPTTAVNFALDIARGMTYLHNEPNVIIHRDLKPRNVLLVNSSADHLKVGDFGLSKLIKVQNSHDVYKMTGETGSYRYMAPEVFKHRRYDKKVDVFSFAMILYEMLEGEPPFANHEPYEAAKHVSDGHRPTFRSKGCTPDLRELIVKCWDADMNQRPSFLDILKRLEKIKETLPSDHHWGLFTS

binding [3]: binds
B2: VIK-YFP^N (protein, UniProt Q9XI87 1-438)
chain: MSSDSPAAGDGGEQAAAGTSVPSPSYDKQKEKARVSRTSLILWHAHQNDAAAVRKLLEEDPTLVHARDYDKRTPLHVASLHGWIDVVKCLLEFGADVNAQDRWKNTPLADAEGARKQKMIELLKSHGGLSYGQNGSHFEPKPVPPPIPKKCDWEIEPAELDFSNAAMIGKGSFGEIVKAYWRGTPVAVKRILPSLSDDRLVIQDFRHEVDLLVKLRHPNIVQFLGAVTERKPLMLITEYLRGGDLHQYLKEKGGLTPTTAVNFALDIARGMTYLHNEPNVIIHRDLKPRNVLLVNSSADHLKVGDFGLSKLIKVQNSHDVYKMTGETGSYRYMAPEVFKHRRYDKKVDVFSFAMILYEMLEGEPPFANHEPYEAAKHVSDGHRPTFRSKGCTPDLRELIVKCWDADMNQRPSFLDILKRLEKIKETLPSDHHWGLFTS
